{"source": "paper PMC5221799", "about": "(International Journal of Nanomedicine, 2016)", "tested_on": "MCF7 (Dox-sensitive) cells", "assay": "CCK-8 cytotoxicity assay in MCF7 cells", "format": "cell-based, human", "note": "Where two headings read alike, the source gives them in different places.", "data": [{"smiles": "COc1cccc2c1C(=O)c1c(O)c3c(c(O)c1C2=O)C[C@@](O)(C(=O)CO)C[C@@H]3O[C@H]1C[C@H](N)[C@H](O)[C@H](C)O1", "note": "[Free Dox, doxorubicin]", "values": [{"measurement": "IC50", "setting": "read-out: IC50 of Dox or equivalent NLS-Dox, 48 hours, CCK-8, mean ± SD (n=5)", "result": "2430 ± 220", "unit": "nM"}, {"measurement": "IC50", "setting": "read-out: IC50 of Dox or equivalent NLS-Dox, 96 hours, CCK-8, mean ± SD (n=5)", "result": "610 ± 170", "unit": "nM"}]}]}
